Laboratory results: PubChem BioAssay AID2685 (National Center for Advancing Translational Sciences (NCATS), 2010)
Among all 320,000 compounds or so, about 2,100 (0.66%) were called active. This list was built around the results that the source calls inconclusive (neither active nor inactive); the mix of calls is not that of the screen. The call rests on the fitted dose curve; in most records, active means well fitted inhibition curve with a large enough effect in the signal ratio, with a control signal flat (not every such curve was filed as active); inconclusive means small, poorly fitted or top-dose-only effect, or effect the other way, or a change in a side signal; inactive means flat fitted curve, though single readings scatter; the % refers to the signal ratio. Potencies beside an inconclusive call are fits to weak or partial responses and may not hold up.

Assay: qHTS Assay for Lipid Storage Modulators in Drosophila S3 Cells
Conditions: BODIPY lipid droplet fluorescence, 18-24 h, cells fed with added oleic acid; lipid storage change, negative = inhibition: at 46.1 µM (top of the series) unless noted
Summary of the method: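 Drosophila S3 cells got compounds at several concentrations plus oleic acid (400 uM solution). Laser-scanning cytometry with 488 nm excitation read lipid droplets at 500-530 nm and cells at 575-640 nm. Percent activity was relative to 20 uM Triacsin C.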
On the % scale 0 is the no-effect control and ±100 the full control effect; potency means the concentration at half of the fitted maximal effect.

| SMILES | lipid storage change, negative = inhibition | Potency |
| --- | --- | --- |
| COc1ccc(-c2c(=O)n(OCc3nc4ccccc4[nH]3)c3ccccc3[n+]2[O-])cc1 | inactive | – |
| CC(=O)c1ccc(NC(=O)c2cccc(NC(=O)c3ccccc3)c2)cc1 | – | inconclusive: 18.4 µM [falling, single point] |
| Cc1cnc(CN(C)Cc2c(C(=O)N3CCc4ccccc4C3)nc3ccc(Cl)cn23)[nH]1 | inconclusive: 31.5% | – |
| Cc1ccc(S(=O)(=O)c2nc(S(=O)(=O)CCO)sc2N2CCOCC2)cc1 | inconclusive: -3.18% | – |
| Cc1cccc(C(=O)N[C@H](C(=O)OCC(=O)NC2CCS(=O)(=O)C2)C(C)C)c1 (some centres undefined) | – | inconclusive: 13 µM [falling, partial curve] |
| C=CCNC(=O)C1CCCN(S(=O)(=O)c2ccc(-n3cnnn3)cc2)C1 (centres undefined) | inconclusive: 40.8% | – |
| CCN(CC)S(=O)(=O)c1cccc(NC2=NCC(C)S2)c1 (centres undefined) | inconclusive: 20.2% | – |
| C/C(=N\NC(=O)c1ccc(NS(=O)(=O)c2cccs2)cc1)c1ccc(C(C)(C)C)cc1 | inconclusive: -20.1% | – |
| O=C(/C=C/Nc1cccc(C(F)(F)F)c1)C(F)(F)F | – | inconclusive: 3.26 µM [activator, single point] |
| Oc1cc2c(cc1CN1CCc3ccccc3C1)OCO2 | – | inconclusive: 20.6 µM [activator, single point] |
| Cc1csc2nc(CNS(=O)(=O)c3ccc(-c4ccccc4)cc3)cn12 | inconclusive: -11% | – |
| O=C(OCc1nc2ccsc2c(=O)[nH]1)c1cc(Br)c(Br)s1 | inconclusive: 44.3% | – |
| CCn1cc([N+](=O)[O-])c(C(=O)N2N=C(c3ccc(Cl)c(Cl)c3)CC2c2ccccc2O)n1 (centres undefined) | – | inconclusive: 29.1 µM [cytotoxic, single point] |
| Cc1ccc(-n2c(O)c(C=Nc3ccccc3-c3n[nH]c(=S)[nH]c3=O)c3ccccc3c2=O)cc1C | inconclusive: 3.82% | – |
| O=C(NCc1cccs1)c1cc(-c2cccc(Cl)c2)on1 | – | inconclusive: 2.91 µM [activator, partial curve] |
| CC(Sc1nnnn1C)C(=O)Nc1ncc(Cl)cc1Cl (centres undefined) | inconclusive: 13.9% | – |
| CC(/C=C/c1ccc(N(C)C)cc1)=N/N=C1/NC(=O)CC(C(=O)Nc2ccc(Cl)cc2)S1 (centres undefined) | inconclusive: 24.8% | – |
| CC(Sc1n[nH]c(=O)[nH]c1=O)C(=O)OCc1ccccc1 (centres undefined) | inconclusive: -5.91% | – |
| Cn1nc(C(=O)NNC(=O)COc2ccccc2)c2ccccc2c1=O | – | inconclusive: 14.6 µM [activator, single point] |
| O=C(Cc1ccccc1)Nc1ccccc1N1CCCC1 | inconclusive: -9.63% | – |

| SMILES | lipid storage change, negative = inhibition | Potency |
| --- | --- | --- |
| COCCn1c(N)c(Sc2ccc(Cl)cc2)c(=O)[nH]c1=O | – | inconclusive: 6.51 µM [falling, single point] |
| CC(Oc1ccc(Br)cc1)C(=O)NCC(c1ccco1)N1CCCCC1 (centres undefined) | inconclusive | – |
| COC(=O)[C@H](CC(C)C)NC(=O)NCc1ccc(Cl)cc1 | inconclusive: 9.28% | – |
| CC(=O)Nc1ccc(S(=O)(=O)NCCCc2ccccc2)cc1 | inconclusive: 15.1% | – |
| O=C(OCC(=O)N1CCCCC1)c1c[nH]c(=O)[nH]c1=O | – | inconclusive: 7.31 µM [falling, partial curve, poor fit] |
| CCOc1cc(N2CCOCC2)c(OCC)cc1NC(=O)c1nc2nc(C)cc(C)n2n1 | inconclusive: 3.02% | – |
| CC(=O)Oc1cccc(C(=O)Nc2cccc(C(=O)Nc3ccccc3C(=O)O)c2)c1 | inconclusive: 471% | – |
| COc1ccc(/C(O)=C2\C(=O)C(=O)N(CCCN(C)C)C2c2ccccc2F)cc1Cl (centres undefined) | inconclusive: -33.9% | – |
| CCO[C@@H]1OC(C(=O)NCc2ccccc2)=C[C@H](C2CCCCC2)[C@H]1CCCO | inconclusive: -6.19% | – |
| COc1ccc(COC(=O)c2cccc(S(=O)(=O)N3CCN(C(C)=O)CC3)c2)cc1 | inconclusive | – |
| O=C(COC(=O)c1ccc2c(c1)C(=O)N(Cc1ccncc1)C2=O)Nc1cccc2ccccc12 | inconclusive: -30% | – |
| O=C(Nc1ccc(S(=O)(=O)NCc2ccco2)cc1)c1ccc(F)cc1 | inconclusive: -23.4% | – |
| Nn1c(SCc2ccccc2)nc2ccccc21 | – | inconclusive: 25.9 µM [falling, single point] |
| CCCC(C(=O)NC1CCCC1)N(Cc1ccc2c(c1)OCO2)C(=O)c1snc(C(N)=O)c1N (centres undefined) | – | inconclusive: 1.84 µM [activator, partial curve] |
| Brc1ccccc1OCCOc1cccc2cccnc12 | inconclusive: 113% | – |
| COc1ccc(CCN2CC(C(=O)N(C)Cc3ccc4nsnc4c3)CCC2=O)cc1 (centres undefined) | inconclusive: -1.37% | – |
| Cc1cccc(NC(=O)CNC(=O)CN2C(=O)NC3(CCc4ccccc43)C2=O)c1C (centres undefined) | inconclusive | – |
| Cc1ccccc1NC(=O)c1cc(S(=O)(=O)Nc2cccc(C(=O)O)c2)ccc1Cl | inconclusive: -69.8% | – |
| COc1ccc(C2CC(c3ccc4ccccc4c3OC(C)=O)=NN2C(=O)/C=C/c2ccccc2)cc1 (centres undefined) | – | active: 6.51 µM |

Pulled one by one from the list above (3):

| SMILES | lipid storage change, negative = inhibition | Potency |
| --- | --- | --- |
| O=C(OCC(=O)N1CCCCC1)c1c[nH]c(=O)[nH]c1=O | – | inconclusive: 7.31 µM [falling, partial curve, poor fit] |
| COc1ccc(COC(=O)c2cccc(S(=O)(=O)N3CCN(C(C)=O)CC3)c2)cc1 | inconclusive | – |
| COC(=O)[C@H](CC(C)C)NC(=O)NCc1ccc(Cl)cc1 | inconclusive: 9.28% | – |
